Results published in PMC13434726.

The chains behind the UniProt entries cited, without tags or fusion partners.
UniProt Q04206: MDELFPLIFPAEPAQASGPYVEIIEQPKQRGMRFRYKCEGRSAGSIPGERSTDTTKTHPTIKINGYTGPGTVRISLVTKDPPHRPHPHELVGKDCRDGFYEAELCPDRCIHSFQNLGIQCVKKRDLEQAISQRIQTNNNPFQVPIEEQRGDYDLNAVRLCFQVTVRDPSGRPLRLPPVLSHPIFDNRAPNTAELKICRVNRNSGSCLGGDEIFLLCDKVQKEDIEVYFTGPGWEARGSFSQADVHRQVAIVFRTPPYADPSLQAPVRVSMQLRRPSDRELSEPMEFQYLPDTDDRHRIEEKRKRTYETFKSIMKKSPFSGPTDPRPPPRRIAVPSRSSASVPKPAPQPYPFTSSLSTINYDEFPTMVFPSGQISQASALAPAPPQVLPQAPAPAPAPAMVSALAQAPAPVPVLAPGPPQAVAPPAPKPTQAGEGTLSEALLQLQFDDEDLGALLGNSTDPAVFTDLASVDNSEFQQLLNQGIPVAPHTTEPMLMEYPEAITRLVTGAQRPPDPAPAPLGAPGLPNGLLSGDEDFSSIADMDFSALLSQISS
UniProt Q567U6: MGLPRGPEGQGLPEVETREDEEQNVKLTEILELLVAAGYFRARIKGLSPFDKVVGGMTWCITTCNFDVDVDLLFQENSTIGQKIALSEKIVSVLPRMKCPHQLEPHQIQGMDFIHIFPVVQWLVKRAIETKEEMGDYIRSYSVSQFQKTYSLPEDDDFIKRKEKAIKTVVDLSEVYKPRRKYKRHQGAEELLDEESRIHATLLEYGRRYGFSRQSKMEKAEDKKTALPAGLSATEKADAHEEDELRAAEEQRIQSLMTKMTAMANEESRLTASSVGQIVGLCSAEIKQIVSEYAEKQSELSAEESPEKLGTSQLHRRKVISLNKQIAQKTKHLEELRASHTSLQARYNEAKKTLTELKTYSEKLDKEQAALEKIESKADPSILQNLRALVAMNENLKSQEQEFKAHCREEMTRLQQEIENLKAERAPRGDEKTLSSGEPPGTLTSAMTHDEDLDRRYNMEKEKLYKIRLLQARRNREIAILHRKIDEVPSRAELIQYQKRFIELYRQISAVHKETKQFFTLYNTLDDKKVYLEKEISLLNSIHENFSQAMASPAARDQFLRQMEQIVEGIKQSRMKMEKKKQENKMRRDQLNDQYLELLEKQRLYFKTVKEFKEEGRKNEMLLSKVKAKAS
UniProt Q7Z4G1: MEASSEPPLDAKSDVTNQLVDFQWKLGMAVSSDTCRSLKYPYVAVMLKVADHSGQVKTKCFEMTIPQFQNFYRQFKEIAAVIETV
UniProt O00762: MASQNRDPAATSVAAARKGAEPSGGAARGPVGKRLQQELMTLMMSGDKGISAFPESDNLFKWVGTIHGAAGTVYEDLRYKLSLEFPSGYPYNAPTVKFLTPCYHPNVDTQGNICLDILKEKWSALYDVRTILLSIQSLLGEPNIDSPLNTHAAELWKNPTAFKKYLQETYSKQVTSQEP
UniProt Q9NX08: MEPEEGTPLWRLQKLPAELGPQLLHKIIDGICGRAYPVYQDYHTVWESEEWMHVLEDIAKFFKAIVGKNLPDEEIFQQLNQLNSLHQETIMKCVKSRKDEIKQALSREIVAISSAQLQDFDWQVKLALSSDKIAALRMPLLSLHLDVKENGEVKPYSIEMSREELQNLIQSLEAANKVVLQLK
UniProt Q8N668: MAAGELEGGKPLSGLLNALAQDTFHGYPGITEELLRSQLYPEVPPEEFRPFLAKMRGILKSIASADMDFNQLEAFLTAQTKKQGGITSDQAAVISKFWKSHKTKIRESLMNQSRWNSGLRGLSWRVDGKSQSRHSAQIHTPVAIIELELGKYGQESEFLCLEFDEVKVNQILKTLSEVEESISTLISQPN
UniProt Q9UBN7: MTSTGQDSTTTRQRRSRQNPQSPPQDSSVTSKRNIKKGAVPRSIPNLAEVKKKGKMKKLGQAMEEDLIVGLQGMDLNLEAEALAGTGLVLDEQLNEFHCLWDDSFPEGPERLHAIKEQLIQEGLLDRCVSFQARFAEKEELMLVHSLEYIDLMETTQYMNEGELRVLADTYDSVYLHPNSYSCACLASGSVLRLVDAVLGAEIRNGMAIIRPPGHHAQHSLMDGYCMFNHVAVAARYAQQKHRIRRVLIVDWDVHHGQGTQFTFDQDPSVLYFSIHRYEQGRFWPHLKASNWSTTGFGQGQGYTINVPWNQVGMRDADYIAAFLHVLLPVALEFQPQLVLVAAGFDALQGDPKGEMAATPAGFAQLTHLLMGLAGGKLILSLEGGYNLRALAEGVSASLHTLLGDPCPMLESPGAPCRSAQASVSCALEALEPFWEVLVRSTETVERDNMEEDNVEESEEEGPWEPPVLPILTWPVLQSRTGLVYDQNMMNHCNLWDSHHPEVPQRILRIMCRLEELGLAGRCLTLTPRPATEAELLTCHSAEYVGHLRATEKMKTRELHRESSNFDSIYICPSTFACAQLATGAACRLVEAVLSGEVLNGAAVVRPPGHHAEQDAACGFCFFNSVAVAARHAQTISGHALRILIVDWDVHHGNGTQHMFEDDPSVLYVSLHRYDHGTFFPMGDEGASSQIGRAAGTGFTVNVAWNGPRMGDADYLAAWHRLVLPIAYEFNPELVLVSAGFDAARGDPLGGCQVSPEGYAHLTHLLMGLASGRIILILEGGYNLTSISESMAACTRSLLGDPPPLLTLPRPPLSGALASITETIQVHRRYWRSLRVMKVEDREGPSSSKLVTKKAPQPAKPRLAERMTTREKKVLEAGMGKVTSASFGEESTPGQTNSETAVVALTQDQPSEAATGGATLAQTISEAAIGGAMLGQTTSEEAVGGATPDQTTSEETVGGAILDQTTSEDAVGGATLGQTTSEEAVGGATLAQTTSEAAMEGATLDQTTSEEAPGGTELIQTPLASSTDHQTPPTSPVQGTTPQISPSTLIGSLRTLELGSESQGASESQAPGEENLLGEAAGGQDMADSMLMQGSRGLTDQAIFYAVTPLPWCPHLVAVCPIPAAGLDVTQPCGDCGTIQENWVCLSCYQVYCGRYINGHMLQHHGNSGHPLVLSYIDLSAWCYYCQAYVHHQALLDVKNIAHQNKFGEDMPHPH
UniProt O60826: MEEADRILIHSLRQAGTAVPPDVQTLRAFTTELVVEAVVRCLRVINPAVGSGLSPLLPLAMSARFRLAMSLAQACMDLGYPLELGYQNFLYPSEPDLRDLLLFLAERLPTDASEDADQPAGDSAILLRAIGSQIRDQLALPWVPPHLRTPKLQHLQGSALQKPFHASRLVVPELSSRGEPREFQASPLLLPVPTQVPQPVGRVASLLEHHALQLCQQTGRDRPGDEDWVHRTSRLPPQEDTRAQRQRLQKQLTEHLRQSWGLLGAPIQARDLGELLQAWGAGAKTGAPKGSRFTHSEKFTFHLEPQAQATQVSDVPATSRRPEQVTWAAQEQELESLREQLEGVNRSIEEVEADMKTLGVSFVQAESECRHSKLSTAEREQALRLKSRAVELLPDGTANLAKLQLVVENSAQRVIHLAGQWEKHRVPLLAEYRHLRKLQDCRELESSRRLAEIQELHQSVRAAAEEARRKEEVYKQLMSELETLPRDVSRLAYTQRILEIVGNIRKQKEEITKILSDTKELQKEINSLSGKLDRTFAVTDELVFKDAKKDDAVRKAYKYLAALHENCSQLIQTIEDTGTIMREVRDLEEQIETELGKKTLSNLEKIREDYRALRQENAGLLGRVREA
UniProt Q9H0A8: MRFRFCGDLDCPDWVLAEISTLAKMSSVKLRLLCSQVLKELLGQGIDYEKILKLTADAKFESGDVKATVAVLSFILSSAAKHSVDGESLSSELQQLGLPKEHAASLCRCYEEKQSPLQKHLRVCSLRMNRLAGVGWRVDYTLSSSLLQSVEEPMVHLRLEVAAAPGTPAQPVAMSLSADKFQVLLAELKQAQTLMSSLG

Experiments:
GFP-COMMD2 = GFP-COMMD2 (UniProt Q86X83); assay: affinity purification with mass spectrometry
GFP-p65 [1] = target: GFP-p65 (UniProt Q04206); assay: affinity purification with mass spectrometry
GFP-p65 [2] = target: GFP-p65 (UniProt Q04206); assay: affinity purification with mass spectrometry; GFP-trap agarose immunoprecipitation of GFP-p65 from RIPA lysates of the stable A549 GFP-p65 cell line 2 h after challenge with TIGR4 or 6B ST90 (MOI 20); matched A549 GFP alone control; on-bead trypsin digestion, label-free LC-MS/MS

Row | Substance | binding (GFP-COMMD2) | binding (GFP-p65 [1]) | binding (GFP-p65 [2])
1 | CCDC93 (from UniProt Q567U6 1-631) | binds | – | –
2 | COMMD6 (from UniProt Q7Z4G1 1-85) | binds | – | –
3 | p65 (from UniProt Q04206 1-551) | binds | – | –
4 | UBE2C (from UniProt O00762 1-179) | – | binds | –
5 | COMMD8 (from UniProt Q9NX08 1-183) | binds | – | –
6 | COMMD1 (from UniProt Q8N668 1-190) | binds | – | –
7 | p62/SQSTM1 (from UniProt Q13501 1-440) | binds | binds | –

Results, then the substance that gave them:

Row | binding (GFP-COMMD2) | binding (GFP-p65 [1]) | binding (GFP-p65 [2]) | Substance
8 | binds | – | binds | HDAC6 (from UniProt Q9UBN7 1-1215)
9 | binds | – | – | CCDC22 (from UniProt O60826 1-627)
10 | binds | binds | – | COMMD4 (from UniProt Q9H0A8 1-199)

No constants are given. Whether binding was seen depends on the method and setting. Binding seen in cells or lysates may run through a third protein. These calls come from enrichment with a bait or labelling near it, and not all partners need be listed.
